Results taken from US5821230A (Ferring BV, priority 1997, dated 1998).

Assay: general procedure: Boc solid-phase peptide synthesis; MBHA resin (Bachem); DIC/HOBt
Conditions: whole synthesis, scale of the general procedure about 9.3 grams (0.54 mmol) of MBHA resin

## PEPTIDE1{[ac].[D-2Nal].[D-4Cpa].[D-Dpr(Cbm)].S.[4Aph(Ac)].[D-4Aph(Ac)].L.[ILys].P.[dA].[am]}$$$$V2.0
Capillary zone electrophoresis (CZE)
  final purity (method not given): greater than 98%

## PEPTIDE1{[ac].[D-2Nal].[D-4Cpa].[D-Dpr(MeCbm)].S.[4Aph(Ac)].[D-4Aph(Ac)].L.[ILys].P.[dA].[am]}$$$$V2.0
CZE
  final purity (method not given): about 100%

HELM strings list residues between dots; [ac] is acetyl, [am] amide, other brackets name non-standard units.
